1 molecule from patent CN107840889A can be followed below.

This assay deals with T1, CD123-his-biotin抗原 (Homo sapiens (Human)) (UniProt P26951).
T1 sequence (chain, biotin label (site not stated)): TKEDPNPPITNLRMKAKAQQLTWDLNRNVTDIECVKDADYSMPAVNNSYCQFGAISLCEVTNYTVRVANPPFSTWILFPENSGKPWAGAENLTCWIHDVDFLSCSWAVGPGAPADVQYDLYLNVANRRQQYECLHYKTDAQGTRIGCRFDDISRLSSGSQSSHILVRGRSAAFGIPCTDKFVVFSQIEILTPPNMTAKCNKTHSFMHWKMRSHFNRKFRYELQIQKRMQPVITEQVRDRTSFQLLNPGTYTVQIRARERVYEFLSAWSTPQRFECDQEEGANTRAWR
The assay is described as follows: BLI (Octet RED96), CD123-Biotin on AR2G sensor. A general note: In BLI a coated tip is dipped into the sample, and binding shifts an interference pattern.

Results are given in words; binding and its absence hold for the method and conditions named. Some results given as binding are weak or reduced against the parent protein; the word gives no strength. Where a sequence is shown, tags or fusion partners need not be part of it.

B1: 8A7 (scFv, V domains shown)
VH: QVQLQQPGAELVRPGASVKLSCKASGYTFTSYWMNWVKQRPDQGLEWIGRIDPYDSETHYNQKFKDKAILTVDKSSSTAYMQLSSLTSEDSAVYYCARGNWDDYWGQGTTLTVSS
VL: DVQITQSPSYLAASPGETITINCRASKSISKDLAWYQEKPGKTNKLLIYSGSTLQSGIPSRFSGSGSGTDFTLTISSLEPEDFAMYYCQQTNRYPYTFGGGTKLEIK
With B1, the binding result is reported as “binds”.
